PubChem BioAssay AID1159584, Peter MacCallum Cancer Centre – 2016
Assay: 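Knock-downs that harm CDH1-null cells more than parental MCF10A cells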 (primary screen). Cells: human MCF10A breast epithelial cells, parental and CDH1-null. Reagents: siRNA against human genes. Measured: 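Cell viability by CellTiter-Glo ATP luminescence, each line scaled to the mean of mock wells across plates, then CDH1-null over parental ratio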. Reading the numbers: CDH1-null / parental viability ratio: higher = CDH1-null cells survive relatively better than parental.
In all, the deposit lists about 18,000 reagents; below is an unselected part. Further read-outs or replicates are left out here. Reagent sequences are not shown. Not stated in the record: the amount of reagent, the time to read-out.

LTA (lymphotoxin alpha) | CDH1-null / parental viability ratio = 1
DEFA5 (defensin alpha 5) | CDH1-null / parental viability ratio = 1.05
MMP26 (matrix metallopeptidase 26) | CDH1-null / parental viability ratio = 1.15
ITGA2 (integrin subunit alpha 2) | CDH1-null / parental viability ratio = 0.86
DHRS4 (dehydrogenase/reductase 4) | CDH1-null / parental viability ratio = 0.83
LMO4 (LIM domain only 4) | CDH1-null / parental viability ratio = 1.04
CTXN1 (cortexin 1) | CDH1-null / parental viability ratio = 0.81
HMGN2P46 | CDH1-null / parental viability ratio = 0.95
CCDC197 (coiled-coil domain containing 197) | CDH1-null / parental viability ratio = 1.09
DNAJC24 (DnaJ heat shock protein family (Hsp40) member C24) | CDH1-null / parental viability ratio = 1
EIF3I (eukaryotic translation initiation factor 3 subunit I) | CDH1-null / parental viability ratio = 0.94
SMARCE1 (SWI/SNF related BAF chromatin remodeling complex subunit E1) | CDH1-null / parental viability ratio = 1.07
CSK (C-terminal Src kinase) | CDH1-null / parental viability ratio = 0.9
TNFSF13 (TNF superfamily member 13) | CDH1-null / parental viability ratio = 0.83
LGI1 (leucine rich glioma inactivated 1) | CDH1-null / parental viability ratio = 1.31
CNPY3 (canopy FGF signaling regulator 3) | CDH1-null / parental viability ratio = 1.1

Ordered by “CDH1-null / parental viability ratio” (lowest first): some entries from above
CTXN1 (cortexin 1) | CDH1-null / parental viability ratio = 0.81
HMGN2P46 | CDH1-null / parental viability ratio = 0.95

Next entries:
OR10Z1 (olfactory receptor family 10 subfamily Z member 1) | CDH1-null / parental viability ratio = 1.07
LINC01559 (long independently transcribed non-coding RNA 1559) | CDH1-null / parental viability ratio = 0.91
SMC4 (structural maintenance of chromosomes 4) | CDH1-null / parental viability ratio = 1.19
TACR2 (tachykinin receptor 2) | CDH1-null / parental viability ratio = 1.31
TMEM44 (transmembrane protein 44) | CDH1-null / parental viability ratio = 0.91
PGRMC1 (progesterone receptor membrane component 1) | CDH1-null / parental viability ratio = 1.02
CAMKV (CaM kinase like vesicle associated) | CDH1-null / parental viability ratio = 0.97
ISG20L2 (interferon stimulated exonuclease gene 20 like 2) | CDH1-null / parental viability ratio = 1
